# According to PubChem BioAssay AID493014 (National Center for Advancing Translational Sciences (NCATS), 2011):
# The other results are listed elsewhere or left out. The main result of the screen is listed elsewhere. These columns were measured beside it and carry no call. The list favours compounds with an active or inconclusive main result. The note in brackets gives the kind of curve behind each potency; many fits are weak.
# Experiment: qHTS Assay to Find Inhibitors of Chronic Active B-Cell Receptor Signaling
# Details: ABC-DLBCL IkBa-CBG/CBR reporter, luminescence ratio (green luciferase fused to IkBa over red control in TMD8 lymphoma cells), 4 h
# Summary of the method: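 Concentration-response series (up to 46 uM) were applied to TMD8 dual-reporter cells for 4 h at 37C with doxycycline. Green/red ratio, after filter-overlap correction, defined %Activity; red signal alone was normalised to basal cells and zero luminescence.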
# [1] = measured here: CBR red luminescence, cell number
# [2] = measured here: IkBa-CBG green luminescence
SMILES,AC50 [1],AC50 [2]
O=C(NN=C(Cc1ccccc1)Cc1ccccc1)c1ccccc1F,"11.2 µM [falling, partial curve]",
S=C(Nc1ccccc1)c1nc2ccccc2s1,"0.231 µM [rising, full curve]","5.17 µM [falling, full curve]"
COc1ccc(NC(=O)C(c2cc3c(cc2[N+](=O)[O-])OCO3)N2CCN(C=O)CC2)cc1 (stereo not given),"13 µM [rising, partial curve, poor fit]",
O=C(O)CSCc1cnn(-c2ccccc2)c1-n1cccc1,"12.6 µM [falling, single point]",
COC(=O)C(Cc1c[nH]c2ccccc12)NC(C)=O (stereo not given),"0.731 µM [rising, partial curve, poor fit]",
CCn1c2ccc(C)cc2c2nc3cc(C(=O)O)ccc3nc21,"29.1 µM [falling, partial curve, poor fit]",
Oc1ccc(-c2cn3cc(C(F)(F)F)ccc3n2)cc1,"2.31 µM [rising, partial curve]",
O=C(CSc1nc2ccccc2o1)N1CCOCC1,"0.398 µM [rising, full curve, poor fit]",
COc1ccc(-c2cn[nH]c2-c2ccc(OCc3ccc([N+](=O)[O-])cc3)cc2O)cc1OC,"10 µM [falling, partial curve]",
CC(CN1CCOCC1)OC(=O)c1ccc(Br)cc1 (stereo not given),,"15.8 µM [falling, single point]"
Nc1ccc(C(=O)N2CCN(S(=O)(=O)c3ccc(Cl)s3)CC2)cc1[N+](=O)[O-],"23.1 µM [falling, single point]",
Cc1nnc2c3cnn(-c4ccc(Cl)cc4)c3ncn12,"10 µM [rising, partial curve, poor fit]",
Cc1ccc(-c2[nH]c(-c3ccc(Cl)cc3)nc2SCC(=O)NCC2CCCO2)cc1 (stereo not given),"2.31 µM [rising, partial curve]",
O=C(O)c1ccccc1C(=O)OCc1c(-c2ccccc2)ncc2ccccc12,"10.3 µM [falling, partial curve]",
O=c1[nH]c(C2CCN(S(=O)(=O)c3ccc(S(=O)(=O)NC4CC4)cc3)CC2)nc2c1nnn2Cc1ccccc1,"22.4 µM [falling, single point]",
CN(C(=S)NC(=O)c1ccccc1)c1c(N)n(Cc2ccccc2)c(=O)[nH]c1=O,"0.398 µM [rising, full curve]",
Cc1cccc(NC(=O)C2(c3ccccc3)CC2(Cl)Cl)c1 (stereo not given),"15.8 µM [falling, single point]",
CN(C)S(=O)(=O)c1ccc(Cl)c(C(=O)NNC(=O)c2ccc3c(c2)OCO3)c1,"4.61 µM [falling, full curve]",
Cn1c(C(=O)N2CCCC(C(=O)NCc3ccc4c(c3)OCO4)C2)cc2sccc21 (stereo not given),"16.4 µM [falling, single point]",
CC(C)C(=O)Nc1ccc(NC(=O)c2ccc(COc3ccccc3)cc2)cc1,"4.47 µM [rising, partial curve, poor fit]",
O=C(Cc1ccccc1Cl)Nc1nc2ccccc2[nH]1,"2.51 µM [falling, partial curve, poor fit]",

# Among those listed so far, these have fluorine:
SMILES,AC50 [1],AC50 [2]
O=C(NN=C(Cc1ccccc1)Cc1ccccc1)c1ccccc1F,"11.2 µM [falling, partial curve]",
Oc1ccc(-c2cn3cc(C(F)(F)F)ccc3n2)cc1,"2.31 µM [rising, partial curve]",

# Carrying on.

SMILES,AC50 [1],AC50 [2]
Cc1sc(NC(=O)c2ccc(Cl)s2)c(C(N)=O)c1C,"0.92 µM [falling, partial curve, poor fit]",
Cc1nn(-c2ccccc2)cc1/C=N/NC(N)=S,"15.8 µM [rising, single point]",
O=C1CC(N2CCOCC2)C(=O)N1c1ccc(Cl)cc1 (stereo not given),"20 µM [rising, single point]",
O=Cc1c(Cl)nc2ccccn2c1=O,"17.8 µM [falling, single point]",
CC1=NN(C(=O)Cc2ccc([N+](=O)[O-])cc2)C(O)(C(F)(F)C(F)(F)F)C1 (stereo not given),"12.6 µM [falling, single point]",
COc1ccc(NC(=O)CCCc2ccccc2)c(OC)c1,"8.91 µM [rising, partial curve, poor fit]",
COc1ccc(N(CC(O)CN2C(=O)NC(C)(C)C2=O)S(=O)(=O)c2ccc(C)cc2)cc1 (stereo not given),"20.6 µM [rising, single point]",
Cc1oc(-c2ccccc2)cc1C(=O)NC1CCN(Cc2ccccc2)CC1,"35.5 µM [rising, single point]",
Cc1nn(CCC#N)c(C)c1Oc1ccccc1O,"5.62 µM [rising, single point]",
CCN(CC)S(=O)(=O)c1ccc(C)c(NC(=S)Nc2cccc(S(=O)(=O)N3CCCCCC3)c2)c1,"29.1 µM [falling, single point]",
C#CCNC(=O)C1=C[C@H](c2ccccc2)[C@@H](CCCO)[C@H](OCC)O1,"14.1 µM [rising, single point]",
COc1ccc(C(=O)N2CCN(c3ccc(NC(=O)c4cccnc4)cc3)CC2)cc1,"11.2 µM [falling, single point]",
CCOC(=O)c1[nH]c(C)c(C(=O)OC)c1C,"1.12 µM [rising, full curve]",
CC(C)(C)C(=O)NCCN1C(=O)S/C(=C\c2ccc([N+](=O)[O-])cc2)C1=O,"29.1 µM [falling, single point]",
Cc1ccccc1C(=O)Nc1ccc(C(=O)N/N=C/c2ccccn2)cc1,"3.55 µM [falling, full curve, poor fit]",
Cc1ccc(Cl)cc1N1CCN(C(=O)CCS(=O)(=O)c2cccc3nonc23)CC1,"4.61 µM [falling, full curve, poor fit]",
CCOC(CCNC(=O)c1cc(-c2cccs2)nc2ccccc12)OCC,"1.41 µM [rising, partial curve, poor fit]",
O=C(/C(=C/O)N=Nc1ccccc1)c1ccco1,"11.2 µM [rising, partial curve]","35.5 µM [falling, single point]"
O=C(O)c1ccccc1/C=N/Nc1ccc(S(=O)(=O)N2CCCC2)cc1[N+](=O)[O-],"6.31 µM [falling, single point]",
Cn1cnc([N+](=O)[O-])c1Sc1nc2ccccc2[nH]1,"3.55 µM [falling, partial curve, poor fit]",
CCOC(=O)C1(Cc2ccccc2C(F)(F)F)CCN(C(C)COC)CC1 (stereo not given),"0.447 µM [rising, full curve]",

SMILES,AC50 [1],AC50 [2]
CC(C)c1cc(C(=O)NNC(=S)NCc2ccco2)c(O)c(C(C)C)c1,"29.1 µM [falling, single point]",
CCCCN(C)CCn1c(=S)[nH]c2cc(OCC)c(OCC)cc2c1=O,"35.5 µM [rising, single point]",
Cn1c(=O)c2c(ncn2CC(=O)OCC(=O)NNC(=O)c2ccc(Cl)cc2)n(C)c1=O,"16.4 µM [rising, partial curve, poor fit]",
Cn1c2c(c(=O)n(C)c1=O)[C@@]1(C(=O)Nc3ccccc31)C(C#N)=C(N)O2,"29.1 µM [falling, single point]",
COc1ccc(-c2nn(-c3ccccc3)cc2/C=C2/SC(=S)N(Cc3ccco3)C2=O)c(C)c1,"17.8 µM [rising, partial curve, poor fit]",
CN(C)c1ccc(-n2cccc2)cc1,"3.16 µM [falling, partial curve, poor fit]",
CCN(CC)c1nc2c(s1)C(=O)NCCC2,"2.82 µM [rising, partial curve, poor fit]",
N/C(=N\NC(=O)c1ccccc1Cl)c1cc2ccccc2oc1=O,"3.98 µM [falling, full curve]",
CC1(C)CC(=O)C2=C(C1)N1CCCCC1CC2=O (stereo not given),"3.16 µM [falling, partial curve, poor fit]",
C=CCNC(=O)c1ccccc1NC(=O)COc1ccc(OC)cc1,"35.5 µM [falling, single point]",
CCNC(=O)COc1ccc(OCc2ccccc2)cc1,"0.282 µM [rising, full curve, poor fit]",
O=C(CCCN1C(=O)/C(=C\c2cccs2)SC1=S)Nc1ccc(O)cc1C(=O)O,"0.891 µM [falling, full curve]",
CS(=O)(=O)c1ccc2nc(NC(=O)c3ccccc3Br)sc2c1,"22.4 µM [falling, single point]",
CCn1c2ccccc2c2cc(NC(=O)CSc3nnc(-c4cccc(OC)c4)n3N)ccc21,"3.66 µM [falling, partial curve, poor fit]",
COc1ccc(S(=O)(=O)NCC2CCCN(C(=O)c3occc3C)C2)cc1 (stereo not given),"0.708 µM [rising, partial curve, poor fit]",
CCN(CC)CCNc1cc(C)c(C#N)c2nc3ccccc3n12,"15.8 µM [falling, partial curve, poor fit]",
CC(C(=O)Nc1ccc([N+](=O)[O-])cc1)N1CCN(C/C=C/c2ccccc2)CC1 (stereo not given),"11.6 µM [falling, partial curve, poor fit]",
O=C(Nc1nnc(COc2ccc(F)cc2)s1)c1cccs1,"5.8 µM [rising, full curve, poor fit]",
CCOc1ccc(NC(=S)N(CCN2CCOCC2)Cc2cc3cc4c(cc3[nH]c2=O)OCCO4)cc1,"2.24 µM [rising, partial curve, poor fit]",
N[C@@H](Cc1ccc(O)cc1)C(=O)Nc1ccc2ccccc2c1,"1.03 µM [falling, full curve, poor fit]",
OC(CNCCc1ccc(Cl)cc1)COc1cc(Cl)ccc1Cl (stereo not given),"14.1 µM [rising, single point]",
